Reference: PubChem BioAssay AID686937 (Drosophila RNAi Screening Center, 2013)
Assay: 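Knock-downs that reduce output of a secreted reporter enzyme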 (primary screen). Cells: Drosophila S2 cells expressing secreted horseradish peroxidase. Knock-down reagent: long dsRNA against Drosophila genes. Duration: about 5.5 days (5 days dsRNA, then 12 h reporter induction). Conditions: reporter expression induced after 5 days of dsRNA, read 12 h later; inducer not stated. Measured: 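After 5 days of dsRNA and 12 h of reporter induction, medium peroxidase read by chemiluminescence and scored as per-plate z-score; higher values mean more reporter released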. Direction: z-score: higher = more reporter secreted into medium.
The deposit covers about 23,000 reagents; below is a random part of those that have a named target and a result. 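Reduced-secretion tags in replicate 1 do not always agree with the z-scores; no criterion for assigning the tags was given.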 Reagents against one gene are numbered here. A plus sign joins genes that one reagent is predicted to hit. Further read-outs or replicates are left out here. The record does not give: the amount of reagent.

z-score, replicate 1, by predicted target and reagent
HmgZ: #1 -0.29; #2 0.01
CG43867: #1 -0.28; #2 0.3; #3 0.42; #4 0.26; #5 0.16
CG30043: #1 0.15
CG3708: #1 0.51
Qsox4: #1 0.34
Obp50c + Obp50b: #1 0.13
CG34408: #1 0.51; #2 -1.23
CG10931: #1 0.36
GV1: #1 0.28
TppII: #1 0.16
CG14036: #1 0.33
CG6830: #1 0.02
pasi2: #1 0.45
amon: #1 0.17; #2 0.58
CG6073: #1 0.15; #2 0.31
CG7639: #1 0.08
Eglp2: #1 0.21
Rrp1: #1 0.56
Lectin-galC1: #1 0.31
RASSF8: #1 0.07
Atu: #1 -0.37
GC1: #1 -0.12
Nup98-96: #1 -3.28; #2 -1.63
sut4: #1 0.56
GstD10: #1 0.27
Eaat1: #1 0.7
asRNA:CR43430 + hts: #1 0.09
wnd: #1 0.04; #2 0.45; #3 0.11
CG34244: #1 0.45
CG43136: #1 0.37
PIG-N: #1 0.3
BomBc3: #1 0.23
cDIP: #1 0.44
CG11333: #1 0.44
Ude: #1 0.43
glob2: #1 0.22
JhI-21: #1 0.15
Est-6: #1 0.35
CG32121: #1 0.45
CG9917: #1 0.23
Ccm3: #1 0
NaCP60E: #1 0.44; #2 0.31
GNBP1: #1 0.25; #2 1.28
teq: #1 0.42; #2 0.31; #3 0.44
CG3776: #1 0.5
tw: #1 0.49
Trf4-2: #1 0.35
CG10560: #1 -0.14
CG5653: #1 0.3
CG42327: #1 0.28; #2 0.19
Cth: #1 -0.1
crm: #1 0.62
Spn100A: #1 0.11
CG10734: #1 0.1
Nulp1: #1 0.46
snu: #1 0.29
CG1965: #1 -0.1; #2 1.97
lectin-29Ca: #1 0.21
CG9416: #1 0.69
CG40551 (retired record): #1 0.63
Rcd-1: #1 0.37
tHMG1: #1 -0.24
Idh3b: #1 0.04
mRpS17: #1 0.38
CG15043: #1 -0.05
CG13564: #1 0.13
CG15546: #1 0.44; #2 1.42
psd: #1 0.09
CG4000: #1 0.55; #2 0.11
CG34267: #1 0.56
Rab8: #1 0.56
CG8252: #1 0.3
Pkn: #1 0.22; #2 0.31
TfIIA-L: #1 -2.09
hoe1: #1 0.34; #2 0.02; #3 0.74
CG9962: #1 0.2
Trxr1: #1 0.3; #2 -1.08
Mrm2: #1 0.23
CG40245 (retired record): #1 0.04
CG44433: #1 0.46; #2 0.36
